# According to the supplement of paper PMC8728848:
# The list shows a part of the results.
# What was measured:
# [1] = molecular target: Neu5Gc(a2-8)Neu5Gc(a2-6)Gal(b1-4)GlcNAc; assay: glycan array binding signal (z-score within array); higher = stronger binding; settings: glycan notation: IUPAC condensed, linker removed
# Procedure, shortened: (§1)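 Arrays were curated from the Consortium for Functional Glycomics database, 3228 in total, and kept only where the protein sequence was available. Binding is expressed as a within-array Z-score. This score was averaged across arrays of the same protein sequence at different concentrations or buffers and across linkers, and negative values can be read as non-binding.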
# [2] = molecular target: Neu5Gc(b2-6)Gal(b1-4)GlcNAc; assay: as above; settings: glycan notation: IUPAC condensed, linker removed
# Procedure, shortened: as §1
binder,measurement,setting,value
"Awp3 (Candida glabrata), B4UN32 (protein) MISFVTLLAILGLLSISWADQTVRSVAGDQRVTDPVIVGDNSILDYYGGSNYDFSNNFEIGRGTLYIGKESYFSSFQSAPTDVPNSFHLLIKNTNNLQNNGQFIIENIKRHANQCSNSSIQVFPINFQNDGEFEIISGGVEGRCCLPTSVIAPQNFLNNGKFYYKVLTDTGSIYSGSCMQNVDIGASTTTTVNNNLWEFTGSINAQINGAVSGAAQINLDGSNMFVNANTFSGQVVNLINGGSFLQTSDPLSNIVVINGLGTSDTGVTSIAVKGKGKSFTYNPSSGIVKLTTVEGKTYAYQIGCGYNTKKFITNNDSGASYESADNFFVLTYSEPYSPQTCQLENSSIFSSNFISTSTSSSSSSSSASSLPSSMSSSLPSSLSSSLSSSLSSSMSSSMSSLFIIPPPYTTTRSSGSSIIDTEIVSFYSTTDSPGHTITGTTTTTLYGPHTHSSVSTPSSSSESSTTSNSSIESSSLPHTSVSSTPESSITPSSNTISSSPTSDFSSVQSSSIMESSSVVASSSVINSSSIVDSSSSSASSLPSSMSSSLSSSMSSSLPSSMSSSLSSSLSSSLSSSMSSSMSSLFIIPPPYTTTRSSGSSIIDTEIVSFYSTTDSPGHTITGTTTTTLYGPHTHSSVSTPSSSSESSTTSNSSIESSSLPHTSVSSTPESSITPSSNTISSSPTSDFSSVQSSSIMESSSVVASSSVINSSSIVDSSSSSASSLPSSMPSSLPSSMSSSLSSSMSSSLSSSLSSSLSSSMSSSMSSLFIIPPPYTTTRSSGSSIIDTEIVSFYSTTDSPGHTITGTTTTTLYGPHTHSSVSTPSSSSESSTTSNSSIESSSLPHTSVSSTPESSITPSSNTISSSPTSDFSSVQSSSIMESSSVVASSSATQSSSVINSSSIVDSSSSSASSLPSSMPSSLPSSLSSSLSSSLSSSMSSSMSSLFIIPPPYTTTRSSGSSIIDTEIVSFYSTTDSPGHTITGTTTTTLYESSIYSSSSSTIQESELSNTSRTTMTSNSSVSISSTSSRSSFSNTKSSTIVISQSASLPDSKTDIILSTSSNIGYSSRSLLSDLGTSISDSDIHHSVLHSTESYSSNESGTNPFTSIASLSNFIPESSSHTSTALGSENSVISSDILTTMSHPVATNSGDKPTTPKRSEQVSTTMTSSGPTPDTSSFDTDGMSAYSRPEFTTNSLEVNKSSTSQLGNNKQTFSNLQLESTRPHSENEVDNNTRLLQSIQQSSTYGTNNVNPLSPTGSISIPLTEDGQGDNNNWNSPATNDLCTQISFNLTATTITVTDRITITDSIHDISSEVITSYIYQTIVDQKTVTQTVDGKSLANKMSSIPKPSSRSLIQPQPPVAIELQEGAASTSRVSLVSLFISIILVLL",glycan array binding signal (z-score),[1],-0.772
same,glycan array binding signal (z-score),[2],-0.832
